# In the supplement of paper PMC8728848:
# The list shows a part of the results.
# Columns and labels:
# Assay in all cases: glycan array binding signal (z-score within array); higher = stronger binding
# Settings in all cases: glycan notation: IUPAC condensed, linker removed
# [1] = molecular target: Fuc(a1-2)[Gal(a1-3)]Gal(b1-4)GlcNAc(b1-2)Man(a1-3)[Fuc(a1-2)[Gal(a1-3)]Gal(b1-4)GlcNAc(b1-2)Man(a1-6)]Man(b1-4)GlcNAc(b1-4)GlcNAc
# Procedure, shortened: (§1)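 Columns mapping to the same glycan were averaged after glycan names were converted to IUPAC-condensed notation. The data come from 3228 arrays in the Consortium for Functional Glycomics database, limited to those with an available protein sequence. Binding is reported as a within-array Z-score averaged across arrays of one protein sequence and across linkers.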
# [2] = molecular target: Fuc(a1-2)[Gal(a1-3)]Gal(b1-4)GlcNAc(b1-2)Man(a1-3)[Fuc(a1-2)[Gal(a1-3)]Gal(b1-4)GlcNAc(b1-2)Man(a1-6)]Man(b1-4)GlcNAc(b1-4)[Fuc(a1-6)]GlcNAc
# Procedure, shortened: as §1
# [3] = molecular target: Fuc(a1-2)[Gal(a1-3)]Gal(b1-4)GlcNAc(b1-3)GalNAc
# Procedure, shortened: as §1
# [4] = molecular target: Fuc(a1-2)[Gal(a1-3)]Gal(b1-4)GlcNAc(b1-3)[Fuc(a1-2)[Gal(a1-3)]Gal(b1-4)GlcNAc(b1-6)]GalNAc
# Procedure, shortened: as §1
# [5] = molecular target: Fuc(a1-2)[Gal(a1-3)]Gal(b1-4)GlcNAc(b1-6)GalNAc
# Procedure, shortened: as §1
# [6] = molecular target: Fuc(a1-2)[Gal(a1-3)]Gal(b1-4)[Fuc(a1-3)]Glc
# Procedure, shortened: as §1
# [7] = molecular target: Fuc(a1-2)[Gal(a1-3)]Gal(b1-4)[Fuc(a1-3)]GlcNAc
# Procedure, shortened: as §1
# [8] = molecular target: Fuc(a1-2)[Gal(a1-3)]Gal(b1-4)[Fuc(a1-3)]GlcNAc(b1-3)GalNAc
# Procedure, shortened: as §1
# [9] = molecular target: Fuc(a1-2)[Gal(a1-4)]Gal(b1-4)GlcNAc
# Procedure, shortened: as §1
# [10] = molecular target: Fuc(a1-2)[GalNAc(a1-3)]Gal
# Procedure, shortened: as §1
# [11] = molecular target: Fuc(a1-2)[GalNAc(a1-3)]Gal(b1-3)GalNAc(a1-3)[Fuc(a1-2)]Gal(b1-4)GlcNAc
# Procedure, shortened: as §1
# [12] = molecular target: Fuc(a1-2)[GalNAc(a1-3)]Gal(b1-3)GalNAc(b1-3)Gal(a1-4)Gal(b1-4)Glc
# Procedure, shortened: as §1
# [13] = molecular target: Fuc(a1-2)[GalNAc(a1-3)]Gal(b1-3)GlcNAc
# Procedure, shortened: as §1
# [14] = molecular target: Fuc(a1-2)[GalNAc(a1-3)]Gal(b1-3)GlcNAc(b1-2)Man(a1-3)[Fuc(a1-2)[GalNAc(a1-3)]Gal(b1-3)GlcNAc(b1-2)Man(a1-6)]Man(b1-4)GlcNAc(b1-4)GlcNAc
# Procedure, shortened: as §1
# [15] = molecular target: Fuc(a1-2)[GalNAc(a1-3)]Gal(b1-3)GlcNAc(b1-2)Man(a1-3)[Fuc(a1-2)[GalNAc(a1-3)]Gal(b1-3)GlcNAc(b1-2)Man(a1-6)]Man(b1-4)GlcNAc(b1-4)[Fuc(a1-6)]GlcNAc
# Procedure, shortened: as §1
# [16] = molecular target: Fuc(a1-2)[GalNAc(a1-3)]Gal(b1-3)GlcNAc(b1-3)GalNAc
# Procedure, shortened: as §1
# [17] = molecular target: Fuc(a1-2)[GalNAc(a1-3)]Gal(b1-3)GlcNAc(b1-6)GalNAc
# Procedure, shortened: as §1
# [18] = molecular target: Fuc(a1-2)[GalNAc(a1-3)]Gal(b1-4)Glc
# Procedure, shortened: as §1
# [19] = molecular target: Fuc(a1-2)[GalNAc(a1-3)]Gal(b1-4)GlcNAc
# Procedure, shortened: as §1
# [20] = molecular target: Fuc(a1-2)[GalNAc(a1-3)]Gal(b1-4)GlcNAc(b1-2)Man
# Procedure, shortened: as §1
# [21] = molecular target: Fuc(a1-2)[GalNAc(a1-3)]Gal(b1-4)GlcNAc(b1-2)Man(a1-3)[Fuc(a1-2)[GalNAc(a1-3)]Gal(b1-4)GlcNAc(b1-2)Man(a1-6)]Man(b1-4)GlcNAc(b1-4)GlcNAc
# Procedure, shortened: as §1
# [22] = molecular target: Fuc(a1-2)[GalNAc(a1-3)]Gal(b1-4)GlcNAc(b1-2)Man(a1-3)[Fuc(a1-2)[GalNAc(a1-3)]Gal(b1-4)GlcNAc(b1-2)Man(a1-6)]Man(b1-4)GlcNAc(b1-4)[Fuc(a1-6)]GlcNAc
# Procedure, shortened: as §1
# [23] = molecular target: Fuc(a1-2)[GalNAc(a1-3)]Gal(b1-4)GlcNAc(b1-3)Gal(b1-4)GlcNAc
# Procedure, shortened: as §1
# [24] = molecular target: Fuc(a1-2)[GalNAc(a1-3)]Gal(b1-4)GlcNAc(b1-3)Gal(b1-4)GlcNAc(b1-3)Gal(b1-4)GlcNAc
# Procedure, shortened: as §1
# [25] = molecular target: Fuc(a1-2)[GalNAc(a1-3)]Gal(b1-4)GlcNAc(b1-3)GalNAc
# Procedure, shortened: as §1
# [26] = molecular target: Fuc(a1-2)[GalNAc(a1-3)]Gal(b1-4)GlcNAc(b1-3)[Fuc(a1-2)[GalNAc(a1-3)]Gal(b1-4)GlcNAc(b1-6)]GalNAc
# Procedure, shortened: as §1
# [27] = molecular target: Fuc(a1-2)[GalNAc(a1-3)]Gal(b1-4)GlcNAc(b1-6)GalNAc
# Procedure, shortened: as §1
# [28] = molecular target: Fuc(a1-2)[GalNAc(a1-3)]Gal(b1-4)[Fuc(a1-3)]GlcNAc
# Procedure, shortened: as §1
# [29] = molecular target: Fuc(a1-2)[GalNAc(a1-3)]Gal(b1-4)[Fuc(a1-3)]GlcNAc(b1-3)GalNAc
# Procedure, shortened: as §1
# [30] = molecular target: Fuc(a1-2)[GalNAc(a1-4)]Gal(b1-4)GlcNAc
# Procedure, shortened: as §1
# [31] = molecular target: Fuc(a1-2)[GalNAc(b1-3)]Gal
# Procedure, shortened: as §1
# Fuc(a1-3)GlcNAc = molecular target: Fuc(a1-3)GlcNAc
# Procedure, shortened: as §1
# [32] = molecular target: Fuc(a1-3)[Gal(b1-4)]Glc6S
# Procedure, shortened: as §1
# [33] = molecular target: Fuc(a1-3)[Gal(b1-4)]GlcNAc
# Procedure, shortened: as §1
# [34] = molecular target: Fuc(a1-3)[Gal(b1-4)]GlcNAc(b1-2)Man
# Procedure, shortened: as §1
# [35] = molecular target: Fuc(a1-3)[Gal(b1-4)]GlcNAc(b1-2)Man(a1-3)[Fuc(a1-3)[Gal(b1-4)]GlcNAc(b1-2)Man(a1-6)]Man(b1-4)GlcNAc(b1-4)GlcNAc
# Procedure, shortened: as §1
# [36] = molecular target: Fuc(a1-3)[Gal(b1-4)]GlcNAc(b1-2)Man(a1-3)[Fuc(a1-3)[Gal(b1-4)]GlcNAc(b1-2)Man(a1-6)]Man(b1-4)GlcNAc(b1-4)[Fuc(a1-6)]GlcNAc
# Procedure, shortened: as §1
binder,measurement,setting,value
"MtEccB1 (Mycobacterium tuberculosis H37Rv), O69734 (protein) MGLRLTTKVQVSGWRFLLRRLEHAIVRRDTRMFDDPLQFYSRSIALGIVVAVLILAGAALLAYFKPQGKLGGTSLFTDRATNQLYVLLSGQLHPVYNLTSARLVLGNPANPATVKSSELSKLPMGQTVGIPGAPYATPVSAGSTSIWTLCDTVARADSTSPVVQTAVIAMPLEIDASIDPLQSHEAVLVSYQGETWIVTTKGRHAIDLTDRALTSSMGIPVTARPTPISEGMFNALPDMGPWQLPPIPAAGAPNSLGLPDDLVIGSVFQIHTDKGPQYYVVLPDGIAQVNATTAAALRATQAHGLVAPPAMVPSLVVRIAERVYPSPLPDEPLKIVSRPQDPALCWSWQRSAGDQSPQSTVLSGRHLPISPSAMNMGIKQIHGTATVYLDGGKFVALQSPDPRYTESMYYIDPQGVRYGVPNAETAKSLGLSSPQNAPWEIVRLLVDGPVLSKDAALLEHDTLPADPSPRKVPAGASGAP",glycan array binding signal (z-score),[1],-0.471
same,glycan array binding signal (z-score),[2],-0.543
same,glycan array binding signal (z-score),[3],0.69
same,glycan array binding signal (z-score),[4],0.278
same,glycan array binding signal (z-score),[5],1.28
same,glycan array binding signal (z-score),[6],0.054
same,glycan array binding signal (z-score),[7],-0.345
same,glycan array binding signal (z-score),[8],0.323
same,glycan array binding signal (z-score),[9],-1.08
same,glycan array binding signal (z-score),[10],-0.459
same,glycan array binding signal (z-score),[11],-0.886
same,glycan array binding signal (z-score),[12],-1.01
same,glycan array binding signal (z-score),[13],-0.317
same,glycan array binding signal (z-score),[14],0.03
same,glycan array binding signal (z-score),[15],-1.25
same,glycan array binding signal (z-score),[16],0.901
same,glycan array binding signal (z-score),[17],-1.01
same,glycan array binding signal (z-score),[18],-0.77
same,glycan array binding signal (z-score),[19],-0.665
same,glycan array binding signal (z-score),[20],-0.757
same,glycan array binding signal (z-score),[21],0.708
same,glycan array binding signal (z-score),[22],-2.01
same,glycan array binding signal (z-score),[23],-1.03
same,glycan array binding signal (z-score),[24],-0.217
same,glycan array binding signal (z-score),[25],-0.767
same,glycan array binding signal (z-score),[26],0.434
same,glycan array binding signal (z-score),[27],-0.301
same,glycan array binding signal (z-score),[28],-0.945
same,glycan array binding signal (z-score),[29],-0.572
same,glycan array binding signal (z-score),[30],0.844
same,glycan array binding signal (z-score),[31],0.559
same,glycan array binding signal (z-score),Fuc(a1-3)GlcNAc,-1.29
same,glycan array binding signal (z-score),[32],0.72
same,glycan array binding signal (z-score),[33],-0.159
same,glycan array binding signal (z-score),[34],-0.707
same,glycan array binding signal (z-score),[35],0.033
same,glycan array binding signal (z-score),[36],0.521

# A run of entries of the results above:
binder,measurement,setting,value
"MtEccB1 (Mycobacterium tuberculosis H37Rv), O69734 (protein) MGLRLTTKVQVSGWRFLLRRLEHAIVRRDTRMFDDPLQFYSRSIALGIVVAVLILAGAALLAYFKPQGKLGGTSLFTDRATNQLYVLLSGQLHPVYNLTSARLVLGNPANPATVKSSELSKLPMGQTVGIPGAPYATPVSAGSTSIWTLCDTVARADSTSPVVQTAVIAMPLEIDASIDPLQSHEAVLVSYQGETWIVTTKGRHAIDLTDRALTSSMGIPVTARPTPISEGMFNALPDMGPWQLPPIPAAGAPNSLGLPDDLVIGSVFQIHTDKGPQYYVVLPDGIAQVNATTAAALRATQAHGLVAPPAMVPSLVVRIAERVYPSPLPDEPLKIVSRPQDPALCWSWQRSAGDQSPQSTVLSGRHLPISPSAMNMGIKQIHGTATVYLDGGKFVALQSPDPRYTESMYYIDPQGVRYGVPNAETAKSLGLSSPQNAPWEIVRLLVDGPVLSKDAALLEHDTLPADPSPRKVPAGASGAP",glycan array binding signal (z-score),[13],-0.317
same,glycan array binding signal (z-score),[14],0.03
same,glycan array binding signal (z-score),[15],-1.25
